Laboratory results from PubChem BioAssay (Tox21).
Inconclusive results, whose numbers are uncertain, are shown with a selection of clear calls. A call without a number means that no potency is given here. Calls of active or inactive are those of the source. The call rests on the fitted dose curve.

Amino acid sequences for entries named in this document (tags omitted). A change or cut given only in a name is not applied to a line headed by its entry.
UniProt P19793: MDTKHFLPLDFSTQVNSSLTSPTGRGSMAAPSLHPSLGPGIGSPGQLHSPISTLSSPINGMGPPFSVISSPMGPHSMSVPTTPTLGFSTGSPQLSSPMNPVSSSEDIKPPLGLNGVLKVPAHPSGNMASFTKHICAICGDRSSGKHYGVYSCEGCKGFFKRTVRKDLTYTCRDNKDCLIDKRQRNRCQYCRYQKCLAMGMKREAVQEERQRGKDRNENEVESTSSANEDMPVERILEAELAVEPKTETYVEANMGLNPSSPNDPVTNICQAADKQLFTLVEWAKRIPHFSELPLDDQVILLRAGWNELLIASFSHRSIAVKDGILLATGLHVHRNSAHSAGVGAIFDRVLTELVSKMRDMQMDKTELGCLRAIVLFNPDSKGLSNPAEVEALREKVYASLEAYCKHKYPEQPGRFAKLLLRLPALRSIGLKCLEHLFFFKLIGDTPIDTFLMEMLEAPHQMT

biological target: Retinoic acid receptor RXR-alpha (Homo sapiens) (UniProt P19793); experiment: qHTS assay to identify small molecule agonists of the RXR signaling pathway (AID 1159527); conditions: HEK293T RXRa-UAS-bla, beta-lactamase ratio, 16 h; activation: at 76.8 µM (top of the series) unless noted; further: nearly all actives have a fitted effect of over 35% in size
Method in brief: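 Compounds in DMSO were added to RXR-alpha-UAS-bla HEK 293T cells kept in 2% charcoal-stripped serum, and incubated 16 hr at 37 C with 5% CO2. Reporter signal came from a 2 hr B/G FRET substrate step.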

Row | SMILES | Potency | activation
1 | NC(N)=NC(=O)Cc1c(Cl)cccc1Cl | inactive | –
2 | CC(=O)Nc1ccc(N=Nc2cc(C)ccc2O)cc1 | – | inconclusive: -13.4%
3 | O=C(C(=O)c1ccc(Br)cc1)c1ccc(Br)cc1 | – | inactive: -4.31% [at 15.8 µM]
4 | CC1CCC(C(C)(C)O)CC1 (centres undefined) | inactive | –
